The values below come from PMC11478834.

Chains of the proteins cited; added tags and fusions are not shown. Lines headed by an entry give the natural chain unless they say otherwise; changes in a name come on top.
UniProt C4M9D7: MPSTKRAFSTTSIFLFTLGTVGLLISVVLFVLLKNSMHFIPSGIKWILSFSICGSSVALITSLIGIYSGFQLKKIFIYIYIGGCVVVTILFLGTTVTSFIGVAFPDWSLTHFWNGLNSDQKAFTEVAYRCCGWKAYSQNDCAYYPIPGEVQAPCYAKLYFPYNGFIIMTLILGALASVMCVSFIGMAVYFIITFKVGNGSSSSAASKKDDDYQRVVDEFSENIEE
UniProt C4M9J5: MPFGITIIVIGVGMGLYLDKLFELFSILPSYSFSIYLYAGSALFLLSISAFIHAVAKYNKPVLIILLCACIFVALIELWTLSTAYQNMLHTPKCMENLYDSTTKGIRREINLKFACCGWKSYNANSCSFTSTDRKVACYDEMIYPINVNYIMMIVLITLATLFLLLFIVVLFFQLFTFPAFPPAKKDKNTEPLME
UniProt C4M992: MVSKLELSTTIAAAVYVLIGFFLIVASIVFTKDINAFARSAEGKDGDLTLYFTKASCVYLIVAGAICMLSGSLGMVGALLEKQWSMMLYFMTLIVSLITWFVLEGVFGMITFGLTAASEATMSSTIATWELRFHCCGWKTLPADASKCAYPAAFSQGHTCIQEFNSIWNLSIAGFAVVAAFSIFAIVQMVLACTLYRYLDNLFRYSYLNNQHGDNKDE
UniProt A0A5K1UWE4: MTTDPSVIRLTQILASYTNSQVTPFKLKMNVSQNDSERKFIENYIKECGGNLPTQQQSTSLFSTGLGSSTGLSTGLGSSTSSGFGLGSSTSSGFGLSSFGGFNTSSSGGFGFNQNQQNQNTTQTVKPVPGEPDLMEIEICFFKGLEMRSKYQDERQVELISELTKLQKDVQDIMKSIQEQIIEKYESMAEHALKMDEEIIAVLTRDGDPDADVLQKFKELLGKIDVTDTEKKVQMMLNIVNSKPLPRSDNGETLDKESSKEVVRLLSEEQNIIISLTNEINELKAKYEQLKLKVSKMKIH
UniProt C4M8E1: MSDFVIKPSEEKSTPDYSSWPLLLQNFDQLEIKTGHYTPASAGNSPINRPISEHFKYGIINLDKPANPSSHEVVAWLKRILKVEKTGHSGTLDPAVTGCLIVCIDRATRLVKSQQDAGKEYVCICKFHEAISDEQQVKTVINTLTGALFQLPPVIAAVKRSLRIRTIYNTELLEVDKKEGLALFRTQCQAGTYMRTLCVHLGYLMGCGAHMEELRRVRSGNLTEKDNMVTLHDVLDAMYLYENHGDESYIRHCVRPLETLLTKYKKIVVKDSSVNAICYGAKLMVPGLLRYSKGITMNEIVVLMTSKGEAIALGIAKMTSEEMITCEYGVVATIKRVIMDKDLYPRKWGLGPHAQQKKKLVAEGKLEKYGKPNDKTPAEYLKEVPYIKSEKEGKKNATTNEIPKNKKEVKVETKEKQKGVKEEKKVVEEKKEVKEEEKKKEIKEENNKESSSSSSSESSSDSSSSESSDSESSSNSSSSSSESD
UniProt C4LZB0: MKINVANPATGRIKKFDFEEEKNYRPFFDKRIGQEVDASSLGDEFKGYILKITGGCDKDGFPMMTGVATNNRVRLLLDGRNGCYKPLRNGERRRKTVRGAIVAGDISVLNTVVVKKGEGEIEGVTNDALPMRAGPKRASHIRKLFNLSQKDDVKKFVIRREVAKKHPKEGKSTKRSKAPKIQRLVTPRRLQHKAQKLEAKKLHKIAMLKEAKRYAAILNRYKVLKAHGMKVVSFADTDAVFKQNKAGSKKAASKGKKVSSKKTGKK
UniProt C4M5N2: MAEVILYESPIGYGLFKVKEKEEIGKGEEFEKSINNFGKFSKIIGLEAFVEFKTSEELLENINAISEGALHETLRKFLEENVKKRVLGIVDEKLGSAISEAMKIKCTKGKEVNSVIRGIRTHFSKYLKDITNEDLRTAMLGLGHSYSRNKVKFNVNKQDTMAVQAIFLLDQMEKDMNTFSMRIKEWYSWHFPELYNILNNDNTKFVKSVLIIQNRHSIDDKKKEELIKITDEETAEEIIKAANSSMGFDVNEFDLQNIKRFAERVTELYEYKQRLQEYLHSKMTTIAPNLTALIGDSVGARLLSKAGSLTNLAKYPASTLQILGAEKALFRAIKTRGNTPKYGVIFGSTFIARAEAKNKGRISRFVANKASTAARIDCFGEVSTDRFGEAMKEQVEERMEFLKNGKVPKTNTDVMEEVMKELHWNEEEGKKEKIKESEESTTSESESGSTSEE
UniProt C4LTC5: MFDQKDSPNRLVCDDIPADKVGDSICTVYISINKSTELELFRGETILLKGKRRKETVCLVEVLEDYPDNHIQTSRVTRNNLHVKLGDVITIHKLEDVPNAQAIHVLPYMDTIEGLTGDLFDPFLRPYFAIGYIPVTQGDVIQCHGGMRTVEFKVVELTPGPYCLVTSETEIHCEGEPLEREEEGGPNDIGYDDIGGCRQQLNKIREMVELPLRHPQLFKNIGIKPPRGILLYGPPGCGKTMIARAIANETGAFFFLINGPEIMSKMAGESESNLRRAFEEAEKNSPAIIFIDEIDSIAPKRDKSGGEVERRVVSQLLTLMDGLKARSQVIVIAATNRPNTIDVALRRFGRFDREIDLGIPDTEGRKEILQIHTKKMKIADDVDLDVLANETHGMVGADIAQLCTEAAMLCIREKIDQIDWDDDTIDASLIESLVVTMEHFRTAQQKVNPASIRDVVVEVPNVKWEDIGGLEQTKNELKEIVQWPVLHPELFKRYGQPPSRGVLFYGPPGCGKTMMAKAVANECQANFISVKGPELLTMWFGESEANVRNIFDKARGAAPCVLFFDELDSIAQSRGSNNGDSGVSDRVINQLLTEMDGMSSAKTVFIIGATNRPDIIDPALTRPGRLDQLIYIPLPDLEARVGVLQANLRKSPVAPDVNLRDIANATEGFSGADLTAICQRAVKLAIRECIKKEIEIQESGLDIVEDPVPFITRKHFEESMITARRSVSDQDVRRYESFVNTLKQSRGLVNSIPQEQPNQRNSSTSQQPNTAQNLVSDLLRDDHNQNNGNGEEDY
UniProt C4M730: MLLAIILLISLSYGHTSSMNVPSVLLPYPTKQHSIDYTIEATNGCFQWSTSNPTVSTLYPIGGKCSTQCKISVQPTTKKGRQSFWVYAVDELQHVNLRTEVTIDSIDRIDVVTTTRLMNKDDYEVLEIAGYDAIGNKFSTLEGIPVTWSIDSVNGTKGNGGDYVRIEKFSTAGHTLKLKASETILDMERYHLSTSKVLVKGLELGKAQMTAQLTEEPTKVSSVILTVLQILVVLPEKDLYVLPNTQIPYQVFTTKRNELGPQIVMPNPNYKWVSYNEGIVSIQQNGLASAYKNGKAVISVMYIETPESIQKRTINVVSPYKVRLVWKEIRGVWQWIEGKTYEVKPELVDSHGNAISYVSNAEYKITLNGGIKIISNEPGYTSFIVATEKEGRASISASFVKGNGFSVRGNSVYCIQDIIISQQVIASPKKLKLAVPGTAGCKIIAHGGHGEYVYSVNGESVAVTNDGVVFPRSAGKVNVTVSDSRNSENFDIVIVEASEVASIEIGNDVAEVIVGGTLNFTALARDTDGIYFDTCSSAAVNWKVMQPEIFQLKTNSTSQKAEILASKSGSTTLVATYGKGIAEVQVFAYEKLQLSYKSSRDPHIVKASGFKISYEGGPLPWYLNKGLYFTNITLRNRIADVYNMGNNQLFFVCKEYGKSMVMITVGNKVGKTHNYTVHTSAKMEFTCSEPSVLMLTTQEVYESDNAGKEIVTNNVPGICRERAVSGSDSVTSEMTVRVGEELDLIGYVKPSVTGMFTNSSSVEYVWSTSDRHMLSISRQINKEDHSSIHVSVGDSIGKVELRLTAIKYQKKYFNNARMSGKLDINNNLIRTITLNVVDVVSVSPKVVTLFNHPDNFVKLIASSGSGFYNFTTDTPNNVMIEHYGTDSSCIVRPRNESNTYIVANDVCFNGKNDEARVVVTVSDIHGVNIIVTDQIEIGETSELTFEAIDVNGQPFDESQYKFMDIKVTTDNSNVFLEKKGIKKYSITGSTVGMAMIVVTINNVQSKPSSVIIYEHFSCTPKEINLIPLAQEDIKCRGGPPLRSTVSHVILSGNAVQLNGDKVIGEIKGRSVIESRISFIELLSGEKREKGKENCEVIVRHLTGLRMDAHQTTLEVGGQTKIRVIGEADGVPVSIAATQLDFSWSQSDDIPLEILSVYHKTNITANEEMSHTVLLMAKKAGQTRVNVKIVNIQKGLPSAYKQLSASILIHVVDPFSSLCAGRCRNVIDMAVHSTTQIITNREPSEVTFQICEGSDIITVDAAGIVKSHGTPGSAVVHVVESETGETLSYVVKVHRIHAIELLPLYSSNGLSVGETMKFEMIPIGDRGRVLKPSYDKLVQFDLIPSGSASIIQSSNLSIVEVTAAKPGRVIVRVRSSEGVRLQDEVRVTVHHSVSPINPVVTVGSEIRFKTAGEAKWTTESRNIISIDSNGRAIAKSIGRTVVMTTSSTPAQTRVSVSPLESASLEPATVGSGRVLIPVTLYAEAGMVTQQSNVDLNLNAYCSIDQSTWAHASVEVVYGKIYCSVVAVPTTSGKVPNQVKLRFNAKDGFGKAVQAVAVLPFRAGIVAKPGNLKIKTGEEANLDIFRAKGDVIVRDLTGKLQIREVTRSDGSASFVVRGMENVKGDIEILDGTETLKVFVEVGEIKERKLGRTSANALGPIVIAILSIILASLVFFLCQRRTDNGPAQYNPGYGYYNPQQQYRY
UniProt C4LS87: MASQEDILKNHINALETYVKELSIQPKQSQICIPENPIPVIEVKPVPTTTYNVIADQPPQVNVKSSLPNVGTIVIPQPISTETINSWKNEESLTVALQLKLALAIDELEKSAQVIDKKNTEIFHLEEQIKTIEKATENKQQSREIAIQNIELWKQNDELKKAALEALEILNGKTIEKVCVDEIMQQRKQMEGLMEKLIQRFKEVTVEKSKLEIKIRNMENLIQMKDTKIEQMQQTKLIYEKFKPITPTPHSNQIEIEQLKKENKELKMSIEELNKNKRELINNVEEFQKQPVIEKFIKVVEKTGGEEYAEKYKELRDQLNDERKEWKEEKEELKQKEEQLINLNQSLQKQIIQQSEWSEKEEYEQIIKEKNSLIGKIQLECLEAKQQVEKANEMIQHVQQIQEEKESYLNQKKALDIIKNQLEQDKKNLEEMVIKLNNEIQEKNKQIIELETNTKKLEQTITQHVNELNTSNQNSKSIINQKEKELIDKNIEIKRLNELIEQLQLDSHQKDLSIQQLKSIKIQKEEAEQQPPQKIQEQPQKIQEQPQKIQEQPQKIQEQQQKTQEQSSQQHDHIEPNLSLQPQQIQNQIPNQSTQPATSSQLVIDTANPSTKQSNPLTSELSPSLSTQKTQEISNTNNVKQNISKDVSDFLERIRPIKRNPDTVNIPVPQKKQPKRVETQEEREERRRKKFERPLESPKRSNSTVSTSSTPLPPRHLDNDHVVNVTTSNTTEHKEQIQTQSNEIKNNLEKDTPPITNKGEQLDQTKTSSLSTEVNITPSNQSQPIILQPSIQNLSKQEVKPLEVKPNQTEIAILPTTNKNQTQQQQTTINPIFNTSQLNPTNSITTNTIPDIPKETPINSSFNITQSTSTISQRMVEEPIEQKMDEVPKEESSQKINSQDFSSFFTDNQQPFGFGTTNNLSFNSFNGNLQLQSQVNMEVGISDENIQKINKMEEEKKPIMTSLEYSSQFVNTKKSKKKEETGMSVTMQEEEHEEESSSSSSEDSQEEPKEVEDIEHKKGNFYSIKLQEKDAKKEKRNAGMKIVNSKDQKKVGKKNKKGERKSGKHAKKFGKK

Results are given in words; binding and its absence hold for the method and conditions named. In cells and extracts the contact can be indirect. Here binding means that the protein was enriched with, or labelled near, the bait; the list need not be complete. For part of these data: No binding means not detected with the bait.

Holding throughout (experiment): affinity purification with mass spectrometry; trophozoites of HA-tagged transformants fixed with DSP, lysed in lysis buffer, pre-cleared on Protein G Sepharose; bait held on anti-HA agarose (4°C, 3.5 h), three washes, eluted with HA peptide 0.2 mg/ml overnight at 4°C; eluates sequenced by mass spectrometry against the HA-mock control; three independent trials (two for Ehinteraptin-HA)

The target in assay [1] is Ehinteraptin (EHI_148910) (Entamoeba histolytica) (UniProt C4LT58).
For assay [2], the target named is TSPAN12 (EHI_091490) (Entamoeba histolytica) (UniProt C4M9D7).
Assay [3] addresses TSPAN13 (EHI_107790) (Entamoeba histolytica) (UniProt C4M9J5).
Assay [4] has as its target TSPAN4 (EHI_075690) (Entamoeba histolytica) (UniProt C4M992).

In the case of “Nucleoporin 54 (Nup54, EHI_010010) (from UniProt A0A5K1UWE4)”, the binding entry is recorded as “binds” in assay [1], “binds” in assay [2], “binds” in assay [3] and “no binding” in assay [4].

As to “centromere binding protein cbf5 (EHI_115300) (from UniProt C4M8E1)”, the binding result in assay [1] is recorded as “binds”; in assay [2], “binds”; in assay [3] it was “no binding”; in assay [4], “no binding”.

With “40S ribosomal protein S6 (EHI_000590) (from UniProt C4LZB0)”, the binding result in assay [1] was “binds”.

Turning to “nucleolar protein 56 (Nop56, EHI_122740) (from UniProt C4M5N2)”, the binding entry in assay [1] is given as “binds”; in assay [2], “no binding”; in assay [3] it was “no binding”; in assay [4], “binds”.

With “Cell division cycle protein 48 (EHI_045120) (from UniProt C4LTC5)”, in assay [3], the binding result is on record as “binds”.

On to “Nucleoporin210 (Nup210, EHI_183510) (from UniProt C4M730)”, for which the binding entry in assay [1], in assay [2], in assay [3] and in assay [4] was “binds” in each case.

With “TSPAN4 (EHI_075690) (from UniProt C4M992)”, in assay [2], the binding result is “binds”.

Regarding “SMC-domain containing protein (EHI_152940) (from UniProt C4LS87)”, the binding result in assay [1], in assay [2], in assay [3] and in assay [4] was “binds” in each case.

Consider “TSPAN12 (EHI_091490) (from UniProt C4M9D7)”, for which the binding entry in assay [4] is on record as “binds”.
